# Results of single-concentration screens

Amino acid sequences for entries named in this document (tags omitted). Residues count along the entry.
UniProt I6X8D2, whole entry: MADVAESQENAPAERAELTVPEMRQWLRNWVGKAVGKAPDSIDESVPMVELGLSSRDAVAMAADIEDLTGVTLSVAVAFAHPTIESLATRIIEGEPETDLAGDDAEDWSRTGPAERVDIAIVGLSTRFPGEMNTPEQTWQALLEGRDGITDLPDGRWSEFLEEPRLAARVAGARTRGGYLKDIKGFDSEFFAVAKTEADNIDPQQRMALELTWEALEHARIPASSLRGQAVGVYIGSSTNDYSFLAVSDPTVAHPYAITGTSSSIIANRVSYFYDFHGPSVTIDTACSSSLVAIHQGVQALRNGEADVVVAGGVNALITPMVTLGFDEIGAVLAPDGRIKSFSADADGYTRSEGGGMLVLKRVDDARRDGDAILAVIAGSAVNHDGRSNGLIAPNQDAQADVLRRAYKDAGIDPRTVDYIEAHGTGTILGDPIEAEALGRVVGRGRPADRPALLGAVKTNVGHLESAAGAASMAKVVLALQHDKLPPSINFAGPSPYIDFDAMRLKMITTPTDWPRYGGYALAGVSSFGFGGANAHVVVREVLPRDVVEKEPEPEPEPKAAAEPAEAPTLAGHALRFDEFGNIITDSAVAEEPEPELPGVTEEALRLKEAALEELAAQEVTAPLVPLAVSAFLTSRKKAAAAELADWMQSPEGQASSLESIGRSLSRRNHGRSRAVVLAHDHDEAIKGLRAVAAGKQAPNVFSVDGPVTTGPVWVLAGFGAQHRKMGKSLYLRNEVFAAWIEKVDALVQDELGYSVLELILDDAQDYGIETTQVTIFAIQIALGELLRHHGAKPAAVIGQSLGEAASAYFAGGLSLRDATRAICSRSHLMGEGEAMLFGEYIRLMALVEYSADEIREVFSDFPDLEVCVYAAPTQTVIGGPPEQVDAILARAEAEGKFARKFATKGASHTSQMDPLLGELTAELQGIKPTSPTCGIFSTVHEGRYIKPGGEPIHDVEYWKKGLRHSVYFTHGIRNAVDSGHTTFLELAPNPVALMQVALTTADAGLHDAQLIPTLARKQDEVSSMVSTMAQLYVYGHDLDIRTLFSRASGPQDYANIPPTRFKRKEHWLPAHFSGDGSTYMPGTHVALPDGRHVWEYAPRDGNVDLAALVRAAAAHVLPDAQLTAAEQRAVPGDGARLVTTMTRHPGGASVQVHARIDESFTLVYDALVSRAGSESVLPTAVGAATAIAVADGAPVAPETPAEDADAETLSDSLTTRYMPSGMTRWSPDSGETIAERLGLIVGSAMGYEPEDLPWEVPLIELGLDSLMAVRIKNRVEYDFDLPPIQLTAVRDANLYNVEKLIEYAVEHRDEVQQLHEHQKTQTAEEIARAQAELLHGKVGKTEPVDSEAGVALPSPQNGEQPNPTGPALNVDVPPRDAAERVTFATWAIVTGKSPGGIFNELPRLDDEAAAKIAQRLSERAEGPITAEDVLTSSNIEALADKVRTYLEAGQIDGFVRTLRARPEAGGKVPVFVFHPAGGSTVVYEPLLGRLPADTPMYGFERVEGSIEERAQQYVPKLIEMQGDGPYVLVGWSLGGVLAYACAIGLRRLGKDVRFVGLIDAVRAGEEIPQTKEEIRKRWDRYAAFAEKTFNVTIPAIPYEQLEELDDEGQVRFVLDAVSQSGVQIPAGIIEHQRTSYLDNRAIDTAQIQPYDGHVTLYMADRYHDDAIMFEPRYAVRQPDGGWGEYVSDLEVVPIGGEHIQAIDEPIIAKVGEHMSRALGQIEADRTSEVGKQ
UniProt P9WFT3, whole entry: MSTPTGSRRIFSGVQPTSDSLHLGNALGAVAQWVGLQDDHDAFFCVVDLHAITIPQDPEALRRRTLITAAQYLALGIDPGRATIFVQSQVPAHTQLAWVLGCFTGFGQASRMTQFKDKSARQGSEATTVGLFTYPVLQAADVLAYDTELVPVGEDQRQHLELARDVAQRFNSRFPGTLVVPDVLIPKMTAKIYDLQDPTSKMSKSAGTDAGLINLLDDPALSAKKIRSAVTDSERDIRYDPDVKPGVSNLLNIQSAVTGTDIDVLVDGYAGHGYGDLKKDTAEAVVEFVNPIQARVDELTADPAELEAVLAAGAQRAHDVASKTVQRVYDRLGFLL
UniProt P9WNZ1, whole entry: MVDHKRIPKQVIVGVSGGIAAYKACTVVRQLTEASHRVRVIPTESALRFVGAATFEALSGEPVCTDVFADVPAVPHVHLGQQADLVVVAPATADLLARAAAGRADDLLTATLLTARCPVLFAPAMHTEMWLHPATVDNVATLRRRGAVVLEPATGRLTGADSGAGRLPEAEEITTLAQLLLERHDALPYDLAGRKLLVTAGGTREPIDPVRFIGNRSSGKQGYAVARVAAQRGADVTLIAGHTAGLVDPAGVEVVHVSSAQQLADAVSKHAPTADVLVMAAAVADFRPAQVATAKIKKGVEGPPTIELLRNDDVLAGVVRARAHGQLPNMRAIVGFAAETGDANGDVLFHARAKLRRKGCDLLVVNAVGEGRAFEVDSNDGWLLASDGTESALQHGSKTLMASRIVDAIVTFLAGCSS
UniProt Q8IDJ8, 1-583: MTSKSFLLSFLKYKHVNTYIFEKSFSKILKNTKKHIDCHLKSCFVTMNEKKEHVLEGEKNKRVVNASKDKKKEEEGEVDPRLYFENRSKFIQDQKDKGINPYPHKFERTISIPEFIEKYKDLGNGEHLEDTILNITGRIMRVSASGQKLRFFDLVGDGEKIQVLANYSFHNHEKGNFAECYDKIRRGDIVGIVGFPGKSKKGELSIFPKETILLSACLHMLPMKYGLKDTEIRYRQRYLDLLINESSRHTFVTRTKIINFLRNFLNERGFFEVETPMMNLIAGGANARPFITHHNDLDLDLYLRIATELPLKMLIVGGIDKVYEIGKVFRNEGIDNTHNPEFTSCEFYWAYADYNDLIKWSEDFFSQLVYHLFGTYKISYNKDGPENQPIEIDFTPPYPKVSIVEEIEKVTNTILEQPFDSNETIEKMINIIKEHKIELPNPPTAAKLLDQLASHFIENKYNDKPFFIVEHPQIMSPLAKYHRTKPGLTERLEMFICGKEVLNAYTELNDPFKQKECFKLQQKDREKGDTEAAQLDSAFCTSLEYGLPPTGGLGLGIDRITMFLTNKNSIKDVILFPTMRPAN

Data taken from ChEMBL document CHEMBL3988442, “University of Dundee, Small-Polar-MMV Screening Library” (2021).

Pks13 thioesterase: 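Enzyme assay of the thioesterase domain of polyketide synthase 13; the read-out is not stated. Target: Polyketide synthase Pks13, Mycobacterium tuberculosis (UniProt I6X8D2). Tested at 30 µM. Higher reads as stronger inhibition (inferred from which compounds were picked for retests). About 67,000 compounds were tested under these conditions; 0.46% (about 300) showed 50% or more at least once.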
MtTrpRS: 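Enzyme assay of tryptophanyl-tRNA synthetase; the read-out is not stated. Target: Tryptophan-tRNA ligase, Mycobacterium tuberculosis (UniProt P9WFT3). Tested at 10 µM. Direction is not recorded; retested compounds ran higher, which suggests that high means inhibition. About 65,000 compounds were tested under these conditions; 0.098% (about 64) showed 50% or more at least once.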
CoaBC: 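Enzyme assay of CoaBC with a phosphate dye (Biomol Green) read at 650 nm. Target: Coenzyme A biosynthesis protein CoaBC, Mycobacterium tuberculosis (UniProt P9WNZ1). Tested at 30 µM. Direction is inferred from only a few compounds that gave an IC50; most scored high, so higher reads as stronger inhibition. Most strong results did not repeat in a second test. Size under these conditions: about 67,000 compounds, about 40 of them at 50% or above in at least one test.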
PfKRS1: 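Enzyme assay of the cytosolic lysyl-tRNA synthetase in 384-well plates, read by luminescence. Target: Lysine-tRNA ligase, Plasmodium falciparum 3D7 (UniProt Q8IDJ8). Concentration: 30 µM. Direction is inferred from only a few compounds that gave an IC50; most scored high, so higher reads as stronger inhibition. About 69,000 compounds were tested under these conditions; 0.071% (about 49) showed 50% or more at least once.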

Results are given as percent effect.
How 0% and 100% were set is not recorded. Most values in the screen are low, and negative values occur.
This is an unselected part of the compounds tested.

- CS(=O)(=O)N1CCC(C(=O)N2CCOc3ccccc32)CC1 | Pks13 thioesterase: -10.64%; MtTrpRS: 0.4841%; CoaBC: 4.703%; PfKRS1: -0.1939%
- CC(C)c1nnc(CNc2nc(-c3cccnc3)nc3c2CCC3)n1C | Pks13 thioesterase: -13.59%; MtTrpRS: 0.6717%; CoaBC: 11.02%; PfKRS1: -1.183%
- CCC(=O)N1CC[C@@H]2[C@H](CC1)N(Cc1cccc(C)n1)CCS2(=O)=O | Pks13 thioesterase: -38.9%; MtTrpRS: -2.748%; CoaBC: -7.4%; PfKRS1: 1.941%
- COC(C)(C)CNC(=O)c1cn(-c2cccc(Cl)c2F)nn1 | Pks13 thioesterase: -2.522%; MtTrpRS: -1.085%; CoaBC: 1.139%; PfKRS1: 4.626%
- N#Cc1cccc(CS(=O)(=O)NCC(O)Cc2ccccc2)c1 (stereo not shown) | Pks13 thioesterase: -12.84%; MtTrpRS: -0.5329%; CoaBC: 6.25%; PfKRS1: -1.268%
- CC(c1cccc(S(N)(=O)=O)c1)N(C)CCc1ccccc1 (stereo not shown) | Pks13 thioesterase: -7.83%; MtTrpRS: -4.035%; CoaBC: -3.162%; PfKRS1: -5.813%
- CSc1nsc(NC(=O)c2cc(C3CC3)nn2C)n1 | Pks13 thioesterase: -4.51%; MtTrpRS: -8.073%; CoaBC: -0.4785%; PfKRS1: -0.5695%
- CN1CC2(CCN(C(=O)C3CCC3)CC2)COc2ccccc2S1(=O)=O | Pks13 thioesterase: -19.05%; MtTrpRS: -3.358%; CoaBC: -0.9877%; PfKRS1: 3.264%
- CS(=O)(=O)N1CCC(C(=O)N2CCC3(CC2)OCCCO3)CC1 | Pks13 thioesterase: -30.9%; MtTrpRS: 15.33%; CoaBC: 1.394%; PfKRS1: -4.256%
- CN(Cc1nccn1CC(F)(F)F)C(=O)c1cccc(N(C)C)c1 | Pks13 thioesterase: -12.47%; MtTrpRS: 1.357%; CoaBC: -3.557%; PfKRS1: 3.584%
- Cc1ccc2c(c1)nc1n2[C@@H](CNC(=O)c2ccccn2)COC1 | Pks13 thioesterase: 2.771%; MtTrpRS: 11.91%; CoaBC: 13.02%; PfKRS1: -6.255%
- Cc1ccc(CN2CCCC3(CCN(Cc4ccoc4)CC3)C2)cc1 | MtTrpRS: 6.492%; CoaBC: -14.05%; PfKRS1: -2.989%
- CC(C)Oc1cc(N2CCN(Cc3ccsc3)C(CCO)C2)nc(N)n1 (stereo not shown) | MtTrpRS: 1.38%; CoaBC: -0.2433%; PfKRS1: -2.55%
- CCc1cnc(CN(C)C2CCN(CC(=O)Nc3nccs3)C2)o1 (stereo not shown) | Pks13 thioesterase: -13.48%; MtTrpRS: 6.075%; CoaBC: 0.7874%; PfKRS1: -0.342%
- CCCS(=O)(=O)NCC(C)(O)c1ccsc1 (stereo not shown) | Pks13 thioesterase: -5.185%; MtTrpRS: 1.077%; CoaBC: 2.428%; PfKRS1: 0.7939%
- CC(NCCCN1CCCC1=O)c1cc(Br)ccc1O (stereo not shown) | Pks13 thioesterase: -1.088%; MtTrpRS: 1.387%; CoaBC: -20.36%; PfKRS1: 2.012%

Repeated from the top, 2 entries:

SMILES	Pks13 thioesterase	MtTrpRS	CoaBC	PfKRS1
CS(=O)(=O)N1CCC(C(=O)N2CCOc3ccccc32)CC1	-10.64	0.4841	4.703	-0.1939
CC(C)c1nnc(CNc2nc(-c3cccnc3)nc3c2CCC3)n1C	-13.59	0.6717	11.02	-1.183